Data as given in PubChem BioAssay AID1259254 (NCATS, 2017).

Test: 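Gene knock-downs that lead to re-replication, shown by excess G2 DNA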 (primary screen)
Cells: human HCT116 colorectal cancer cells
Reagent: single siRNA against human genes
Time to read-out: 3 days
Read-out: 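Nuclei stained with Hoechst and imaged; cell-cycle phase assigned by DNA content; G2 share scaled per plate, non-targeting siRNA 0%, GMNN siRNA 100%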
Reading the numbers: G2 robust z-score: higher = more G2 cells, more excess DNA replication
Hit rule: 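An siRNA counts as active if its G2 robust z-score lies at least 5 MADs above the screen median; here such calls match roughly 38% of GMNN control or more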
The whole screen tested about 59,000 reagents; this is a random part of them. Over the whole deposit, about 1,550 (2.6%) are marked active. 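G2 share is only a proxy for re-replication; each gene was hit by three separate siRNAs, and active genes were retested.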 Reagents against one gene are numbered here. Further read-outs or replicates are left out here. Reagent sequences are not shown. The record does not give: the amount of reagent.

{"Gene": "GGT2P (gamma-glutamyltransferase 2, pseudogene)", "siRNA no.": 1, "G2 robust z-score": -0.982, "Call": "inactive"}
{"Gene": "GGT2P (gamma-glutamyltransferase 2, pseudogene)", "siRNA no.": 2, "G2 robust z-score": -0.428, "Call": "inactive"}
{"Gene": "GGT2P (gamma-glutamyltransferase 2, pseudogene)", "siRNA no.": 3, "G2 robust z-score": 2.02, "Call": "inactive"}
{"Gene": "PCDHGB1 (protocadherin gamma subfamily B, 1)", "siRNA no.": 1, "G2 robust z-score": 1.71, "Call": "inactive"}
{"Gene": "PCDHGB1 (protocadherin gamma subfamily B, 1)", "siRNA no.": 2, "G2 robust z-score": 6.62, "Call": "active"}
{"Gene": "PCDHGB1 (protocadherin gamma subfamily B, 1)", "siRNA no.": 3, "G2 robust z-score": 1.26, "Call": "inactive"}
{"Gene": "REV3L (REV3 like, DNA directed polymerase zeta catalytic subunit)", "siRNA no.": 1, "G2 robust z-score": 3.2, "Call": "inactive"}
{"Gene": "REV3L (REV3 like, DNA directed polymerase zeta catalytic subunit)", "siRNA no.": 2, "G2 robust z-score": 0.264, "Call": "inactive"}
{"Gene": "REV3L (REV3 like, DNA directed polymerase zeta catalytic subunit)", "siRNA no.": 3, "G2 robust z-score": 0.00349, "Call": "inactive"}
{"Gene": "LETMD1 (LETM1 domain containing 1)", "siRNA no.": 1, "G2 robust z-score": -1.17, "Call": "inactive"}
{"Gene": "LETMD1 (LETM1 domain containing 1)", "siRNA no.": 2, "G2 robust z-score": 0.718, "Call": "inactive"}
{"Gene": "LETMD1 (LETM1 domain containing 1)", "siRNA no.": 3, "G2 robust z-score": 0.881, "Call": "inactive"}

Copied from the list.
LETMD1 (LETM1 domain containing 1) #3, Call → inactive
Entry of PCDHGB1 (protocadherin gamma subfamily B, 1) #1 under “G2 robust z-score”: 1.71
